Data on 15 sequences can be found in the DeepSol protein solubility set.

The data set in a line: soluble on expression in E. coli; label from the status in PepcDB or PDB records.

With “MAHHHHHHMNAAAIEVINKLKKEDESNNKCFDCGVPNPDWVSVNHGVFLCINCSGVHRSLGVHISIVRSIKMDIFTDEQLKYLDKGGNKKFQTYLENYGINDFIPERKYRTKAAEHYRKIMRSIVHNSDPPSPLSLDEGKDLINFGQNENMNANEINKNSRNNFYADDQPNFIPSLNTSEILDNVSATFSNIINKAQTMTTNTINNLNKNDLIESTKDTLMNSSSWITEKTKKIAENVSDNPWWEKGQSKIKDVTQNASGWISTISSTVSRTNSNFFFANSEFGATGGPNGTGSVSTNASAQGGQGAGAPDHLTNNASSVNNSNADGYNKPNGGENNPGFSRTDTNKSLNKN”, the “soluble on expression in E. coli” value is recorded as “not soluble”.
As for “MSLKIQFDFPASFWTEALPIGNGNLGAMVFGKVEKERIALNEDTLWSGYPKDWNNPKAKEVLPKVRELIAQEKYEEADQLSRDMMGPYTQSYLPFGDLNIFMDHGQVVAPHYHRELDLSTGIVTVTYTIGGVQYTRELFVTYPDRAIVVRLTASKEGFLSFRAKLDSLLRHVSSVGAEHYTISGTAPEHVSPSYYDEENPVRYGHPDMSQGMTFHGRLAAVNEGGSLKVDADGLHVMGATCATLYFSASTSFDPSTGASCLERDPSLRTIETIKAICKRGYKEIVNRHLEDYAKLFNRVSLHLGESIAPADMSTDQRIKEYGSRDLGLVELLFQYGRYLMIASSRPGTQPANLQGIWNEETRAPWSSNYTLNINAEMNYWPAETCNLAELHKPLIHFIERLAANGKKTAEINYGARGWVAHHNADLWGQTAPVGDFGHGDPVWAFWPMGGVWLTQHLWEHYTFGEDEAYLRDTAYPIMKEAALFCLDWLIENEAGYLVTSPSTSPEQRFRIGEKGYAVSSATTMDLSLIAECFDNCIQAAKRLSIDEDFVKALSDAKQRLLPLQIGKRGQLQEWSNDFEDEDVHHRHVSHLVGIYPGRLITEQSAPNLFEAAKTSLEIRGDEGTGWSLGWKISLWARFKDGNRCERLLSNMLTLIKEDESMQHRGGVYANLFGAHPPFQIDGNFSATAGIAEMLLQSHQGYLEFLPALPDSWKDGYVKGLRGRGGYEVDLAWTNGALVKVEIVSTKTQTCEVLTRISMRITESGEEVEGDVLDSGRMSFQVEKGKRYVLNRTTDGEGHHHHHH”, the “soluble on expression in E. coli” value was “soluble”.
Next, “MRGSHHHHHHGSMACPLEKALDVMVSTFHKYSGKEGDKFKLNKSELKELLTRELPSFLGKRTDEAAFQKLMSNLDSNRDNEVDFQEYCVFLSCIAMMCNEFFEGFPDKQPRKK”: “soluble”.
Next, “MPKYRSATTTHGRNMAGARALWRATGVKEEDFGKPIIAVVNSFTQFVPGHVHLKDLGQLVAREIEAAGGIAKEFNTIAVDDGIAMGHGGMLYSLPSRELIADSVEYMVNAHCADAMVCISNCDKITPGMLMAAMRLNIPAIFVSGGPMEAGKTKLSDQIIKLDLVDAMMQGADPKVSDAQSEQIERSACPTCGSCSGMFTANSMNCLTEALGLSQPGNGSLLATHADRKQLFLTAGQRIVELTKRYYEQDDASVLPRNIANKAAFENAIALDIAMGGSTNTVLHLLAAAQEGEVEFDMTDIDRMSRQVPHLCKVAPSTQKYHMEDVHRAGGVMGILGELQRAGLLKDQTRTVLGISLQEQLAQYDVKQTQDPAVHTMFRAGPAGIRTTQAFSQDCRWDTLDDDRQEGCIRDKAHAFSQDGGLAVLKGNLAIDGCIVKTAGVDESILKFRGPAVVYESQEDAVNGILGGQVKAGDVVVIRYEGPKGGPGMQEMLYPTTYLKSMGLGKQCALLTDGRFSGGTSGLSIGHASPEAANGGTIGLVRSGDSIAIDIPNRSITLEVSESELAARRAEQDKLGWKPVDRQRTVSLALKAYASMATSADKGAVRDKSKLEG”: “not soluble”; “MSLSNLPPAVGRSNAMSERHIASAPYPWPWNGQLHAHNTALIVIDMQTDFCGVGGYVDSMGYDLSLTRAPIEPIKALLAVMRPLGFTIIHTREGHRPDLSDLPANKRWRSQRIGAGIGDPGPCGKILVRGEPGWEIIEELAPLPGEIIIDKPGKGSFCATDLELILRTRGINNLILTGITTDVCVHTTMREANDRGFECVLLEDCCGATDPANHAAALSMVKMQGGVFGAVGHSSMFRDLFGAWTCTPQALRRLVPASISVRFAHSTRCRSRSAPAPSTPCSARTAPAKARWSKASSATARCNRAVFWSTTASMRSEGHHHHHH”: “not soluble”; “SLHPYRMEGYIIPPQQIEEMFETEIYRPPMEYQYIIDDSQNDHSWDYNTHHIHPVDFENLPESHFTELQSVQSLHAASVHRFPDVESSHFMDPGLGSHHIPLTNPQMTYLPRTSVCYPHNVQPSPLQRSSDEEDPSSRSPPLEVSDEECMRDHISSTTGGEHGNKKKIRLYQFLLDLLRNGGMKDSIWWVDREKGTFQFSSKHKEVLANRWGIQKGNRKR”: “soluble”.
Next, “MGSSHHHHHHSSGLVPRGSHMATPPKRSCPSFSASSEGTRIKKISIEGNIAAGKSTFVNILKQLCEDWEVVPEPVARWCNVQSTQDEFEELTMSQKNGGNVLQMMYEKPERWSFTFQTYACLSRIRAQLASLNGKLKDAEKPVLFFERSVYSDRYIFASNLYESECMNETEWTIYQDWHDWMNNQFGQSLELDGIIYLQATPETCLHRIYLRGRNEEQGIPLEYLEKLHYKHESWLLHRTLKTNFDYLQEVPILTLDVNEDFKDKYESLVEKVKEFLSTL”: “soluble”.
Turning to “MSRPSSRAIYLHRKEYSQNLTSEPTLLQHRVEHLMTCKQGSQRVQGPEDALQKLFEMDAQGRVWSQDLILQVRDGWLQLLDIETKEELDSYRLDSIQAMNVALNTCSYNSILSITVQEPGLPGTSTLLFQCQEVGAERLKTSLQKALEEELEQSRPRLGGLQPGQDRWRGPAMERPLPMEQARYLEPGIPPEQPHQRTLEHSLPPSPRPLPRHTSAREPSAFTLPPPRRSSSPEDPERDEEVLNHVLRDIELFMGKLEKAQAKTSRKKKFGKKNKDQGGLTQAQYIDCFQKIKYSFNLLGRLATWLKETSAPELVHILFKSLNFILARCPEAGLAAQVISPLLTPKAINLLQSCLSPPESNLWMGLGPAWTTSRADWTGDEPLPYQPTFSDDWQLPEPSSQAPLGYQDPVSLRRGSHRLGSTSHFPQEKTHNHDPQPGDPNSRPSSPKPAQPALKMQVLYEFEARNPRELTVVQGEKLEVLDHSKRWWLVKNEAGRSGYIPSNILEPLQPGTPGTQGQSPSRVPMLRLSSRPEEVTDWLQAENFSTATVRTLGSLTGSQLLRIRPGELQMLCPQEAPRILSRLEAVRRMLGISP”, the “soluble on expression in E. coli” value is recorded as “soluble”.
The entry for “MEENIVSENNMKHRSSVYDSMVKSPNRAMLRATGMTDDSFEKPIVGVISTWAENTPCNIHLHGFGQIAKEGVKDAGAWPVQFGTITVADGIAMGTPGMRFSLTSRDIIADSIEAAMGGHNVDAFVAIGGCDKNMPGSMIAIANMDIPAIFAYGGTIAPGNLNGKDIDLVSVFEGIGKWNHGDMTAEEVKNLECNACPGPGGCGGMYTANTMATAIEVMGMSLPGSSSHPAESAEKKADIEEAGRAVVKMLEMGLKPSDILTREAFEDAITVTMALGGSTNATLHLLAIAHAANVDLTLEDFNDFQERVPHLADLKPSGQYVFQDLYNVGGVPAVMKYLLKNGFLHGDRITCTGKTVAENLEAFDDLTPGQKVIMPLENPKRADGPLIILKGNLAPEGAVAKVSGVKVRNITGPAKVFDSEEDAIEAVLSDEIVDGDVVVVRFVGPKGGPGMPEMLSLSSMIVGKGQGDKVALLTDGRFSGGTYGLVVGHIAPEAQVGGPIAYLRTGDMVTVDQDTKEITMHVPDEELAKRKAETELPPLYSRGVLGKYAHIVSSASRGAVTDFWNMDKSGKALEHHHHHH” is “soluble”; for “MGSSHHHHHHSSGLVPRGSHMPSHRNSNLKFCTVCASNNNRSMESHKVLQEAGYNVSSYGTGSAVRLPGLSIDKPNVYSFGTPYNDIYNDLLSQSADRYKSNGLLQMLDRNRRLKKAPEKWQESTKVFDFVFTCEERCFDAVCEDLMNRGGKLNKIVHVINVDIKDDDENAKIGSKAILELADMLNDKIEQCEKDDIPFEDCIMDILTEWQSSHSQLPSLYAPSYY” it is “soluble”.
The entry for “MSATKLTRREQRARAQHFIDTLEGTAFPNSKRIYITGTHPGVRVPMREIQLSPTLIGGSKEQPQYEENEAIPVYDTSGPYGDPQIAINVQQGLAKLRQPWIDARGDTEELTVRSSDYTKARLADDGLDELRFSGVLTPKRAKAGRRVTQLHYARQGIITPEMEFIAIRENMGRERIRSEVLRHQHPGMSFGAHLPENITAEFVRDEVAAGRAIIPANINHPESEPMIIGRNFLVKVNANIGNSAVTSSIEEEVEKLVWSTRWGADTVMDLSTGRYIHETREWILRNSPVPIGTVPIYQALEKVNGIAEDLTWEAFRDTLLEQAEQGVDYFTIHAGVLLRYVPMTAKRLTGIVSRGGSIMAKWCLSHHQENFLYQHFREICEICAAYDVSLSLGDGLRPGSIQDANDEAQFAELHTLGELTKIAWEYDVQVMIEGPGHVPMQMIRRNMTEELEHCHEAPFYTLGPLTTDIAPGYDHFTSGIGAAMIGWFGCAMLCYVTPKEHLGLPNKEDVKQGLITYKIAAHAADLAKGHPGAQIRDNAMSKARFEFRWEDQFNLALDPFTARAYHDETLPQESGKVAHFCSMCGPKFCSMKISQEVRDYAATQTIEMGMADMSENFRARGGEIYLRKEEA” is “soluble”; for “SARVGSQNGVQMLSPSEIPQRDWFPSDFTFGAATSAYQIEGAWNEDGKGESNWDHFCHNHPERILDGSNSDIGANSYHMYKTDVRLLKEMGMDAYRFSISWPRILPKGTKEGGINPDGIKYYRNLINLLLENGIEPYVTIFHWDVPQALEEKYGGFLDKSHKSIVEDYTYFAKVCFDNFGDKVKNWLTFNDPQTFTSVSYGTGVFAPGRCSPGLDCAYPTGNSLVEPYTAGHNILLAHAEAVDLYNKHYKRDDTRIGLAFDVMGRVPYGTSFLDKQAEERSWDINLGWFLEPVVRGDYPFSMRSLARERLPFFKDEQKEKLAGSYNMLGLNYYTSRFSKNIDISPNYSPVLNTDDAYASQEVNGPDGKPIGPPMGNPWIYMYPEGLKDLLMIMKNKYGNPPIYITENGIGDVDTKETPLPMEAALNDYKRLDYIQRHIATLKESIDLGSNVQGYFAWSLLDNFEWFAGFTERYGIVYVDRNNNCTRYMKESAKWLKEFNTAKKPSKKILTPA” it is “soluble”; for “MGHHHHHHSHMLGLRKAAAISLLLRNVGLQLATLLMSQKKLGFCGNFLFLNLAIIQTKISSSFFFFLRQSLTLSPRLECNGAISAHCHLRLPDSSNSPASASQVTGITGSHHHAWLIFVFLVETGFCHVGQDGLELLTSGDPPASASQSAGITGMSHHTWPTDLFFKTVLPARLGLWDSSV” it is “not soluble”.
Consider “AMNAFGDMTSEEFRQVMNGFQNRKPRKGKVFQEPLFYEAPRSVDWREKGYVTPVKNQGQCGSCWAFSATGALEGQMFRKTGRLISLSEQNLVDCSGPQGNEGCNGGLMDYAFQYVQDNGGLDSEESYPYEATEESCKYNPKYSVANDAGFVDIPKQEKALMKAVATVGPISVAIDAGHESFLFYKEGIYFEPDCSSEDMDHGVLVVGYGFESTESDNNKYWLVKNSWGEEWGMGGYVKMAKDRRNHCGIASAASYPTV”, for which the “soluble on expression in E. coli” value is recorded as “soluble”.
The entry for “MKQSVSAEQIELKSSLPGSKKVYVDGPREGMKVPMREIEQSDTNGVPNPPIRVYDTSGPYTDPAYKVELEKGIPTPRHSWILERGDVEAYEGREVKPEDDGVKVASKHTPVFPQMDRKPLRAKQGANVTQMHYARNGIIKSEMEYVAIREGVDPEFVRKEIAEGRAILPANINHPEAEPMIIGRNFHVKVNANIGNSAVSSSIAEEVEKMTWATRWGADTIMDLSTGKNIHTTREWIIRNAPVPVGTVPIYQALEKVNGIAEDLTWEVYRDTLIEQAEQGVDYFTIHAGVLLRYIPITAKRTTGIVSRGGSIMAQWCLFHHKENFLYTHFEEICEIMKQYDVSFSLGDGLRPGSIADANDEAQFSELETLGELTKIAWKHDVQVMIEGPGHVPMHLIKENMEKELDICQGAPFYTLGPLTTDIAPGYDHITSAIGAAMIGWFGTAMLCYVTPKEHLGLPNKDDVREGVITYKIAAHAADLAKGHKTAHQRDDALSKARFEFRWRDQFNLSLDPERAMEYHDETLPAEGAKTAHFCSMCGPKFCSMRISHDIREYAKENDLETTEAIEKGMKEKAKEFKETGSHLYQ” is “not soluble”.
